Measurements published in article PMC12385072.
These are yes or no findings as the source states them, for the method shown. Some results given as binding are weak or reduced against the parent protein; the word gives no strength.

Target: T1, RIPSYR peptide (TARPγ2-derived, 225-RIPSYR-230)
T1 sequence (peptide): RIPSYR
Assay: pull-down; RIPSYR covalently coupled (EDC/NHS) to carboxy magnetic beads, uncoupled beads as control; recombinant Arc N-lobe added, 2 h at 4 °C; washed with 50 mM Tris Cl, 300 mM NaCl, pH 7.4; eluted with 2% SDS; detected by Western blot; both purified

B1: Arc N-lobe domain (208-278), recombinant (domain or fragment, UniProt Q63053 208-278)
chain: GVDTQIFEDPREFLSHLEEYLRQVGGSEEYWLSQIQNHMNGPAKKWWEFKQGSVKNWVEFKKEFLQYSEGT
Question: Which binding does the source give for B1 here?
Answer: The binding was “binds”.
